Results are given in words; binding and its absence hold for the method and conditions named. Some results given as binding are weak or reduced against the parent protein; the word gives no strength. Ends that are not written are not given here.
Tests used:
[1] = molecular target: Human NMDAR2B on NCI-H82 small-cell lung cancer cells (human) (UniProt Q13224); assay: flow cytometry, NCI-H82 cells
[2] = molecular target: Human NMDAR2B on NCI-H82 small-cell lung cancer cells (human) (UniProt Q13224); assay: flow cytometry, NCI-H82 cells, Fab at 5 µg/mL
[3] = molecular target: Human NMDAR2B on NCI-H82 small-cell lung cancer cells (human) (UniProt Q13224); assay: flow cytometry on live and 4% paraformaldehyde-fixed NCI-H82 cells, Fab at 5 ug/mL, FITC anti-human IgG (Example 9)

Chains of the proteins cited; added tags and fusions are not shown. Lines headed by an entry give the natural chain unless they say otherwise; changes in a name come on top.
UniProt Q13224: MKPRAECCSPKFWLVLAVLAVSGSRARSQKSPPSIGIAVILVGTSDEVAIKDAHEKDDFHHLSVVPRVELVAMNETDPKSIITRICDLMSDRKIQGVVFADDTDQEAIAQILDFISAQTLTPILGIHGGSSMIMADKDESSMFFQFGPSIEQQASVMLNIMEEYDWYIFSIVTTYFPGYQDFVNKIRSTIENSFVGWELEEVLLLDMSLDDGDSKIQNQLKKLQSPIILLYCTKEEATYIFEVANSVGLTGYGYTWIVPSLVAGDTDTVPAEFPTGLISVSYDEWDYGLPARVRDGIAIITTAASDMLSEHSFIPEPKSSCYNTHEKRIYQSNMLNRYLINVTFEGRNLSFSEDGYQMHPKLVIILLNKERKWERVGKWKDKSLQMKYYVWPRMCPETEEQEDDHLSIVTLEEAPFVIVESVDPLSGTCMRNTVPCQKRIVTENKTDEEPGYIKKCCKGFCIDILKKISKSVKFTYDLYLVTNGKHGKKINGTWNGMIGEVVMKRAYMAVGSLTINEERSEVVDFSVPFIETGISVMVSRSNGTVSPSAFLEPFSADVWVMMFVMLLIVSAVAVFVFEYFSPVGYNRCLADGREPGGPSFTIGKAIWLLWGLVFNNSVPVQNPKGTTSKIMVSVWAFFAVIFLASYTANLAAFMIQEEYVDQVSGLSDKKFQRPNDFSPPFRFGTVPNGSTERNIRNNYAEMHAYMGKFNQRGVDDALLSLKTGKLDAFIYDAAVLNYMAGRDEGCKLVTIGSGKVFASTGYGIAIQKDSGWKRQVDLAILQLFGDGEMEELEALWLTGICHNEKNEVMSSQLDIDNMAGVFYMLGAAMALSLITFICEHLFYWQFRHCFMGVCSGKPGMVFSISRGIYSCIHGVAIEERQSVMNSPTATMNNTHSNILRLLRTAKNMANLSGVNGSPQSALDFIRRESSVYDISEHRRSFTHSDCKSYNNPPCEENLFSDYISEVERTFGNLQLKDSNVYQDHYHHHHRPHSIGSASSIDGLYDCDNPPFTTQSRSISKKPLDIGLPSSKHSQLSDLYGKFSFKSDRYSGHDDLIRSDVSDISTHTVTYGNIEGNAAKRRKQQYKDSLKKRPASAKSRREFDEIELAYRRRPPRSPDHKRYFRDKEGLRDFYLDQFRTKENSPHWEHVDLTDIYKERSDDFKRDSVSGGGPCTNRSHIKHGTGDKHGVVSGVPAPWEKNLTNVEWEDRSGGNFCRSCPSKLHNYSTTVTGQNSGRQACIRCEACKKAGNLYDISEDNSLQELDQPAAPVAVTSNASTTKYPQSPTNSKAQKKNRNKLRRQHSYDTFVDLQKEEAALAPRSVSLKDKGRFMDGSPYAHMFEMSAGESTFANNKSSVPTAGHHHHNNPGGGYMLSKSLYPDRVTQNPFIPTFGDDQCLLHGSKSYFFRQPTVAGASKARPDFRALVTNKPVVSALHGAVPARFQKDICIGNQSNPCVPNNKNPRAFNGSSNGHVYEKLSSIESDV

Row | binding [1] | binding [2] | binding [3] | Binder
1 | binds | binds | – | Fab10 (Fab, V domains shown, also called Ab10 (IgG form with the same VH and VL)) VH: EVQLVESGGGLVQPGGSLRLSCAASGFNLYSSYMHWVRQAPGKGLEWVASISSSYGYTYYADSVKGRFTISADTSKNTAYLQMNSLRAEDTAVYYCARTVRGSKKPYFSGWAMDYWGQGTLVTVSS VL: DIQMTQSPSSLSASVGDRVTITCRASQSVSSAVAWYQQKPGKAPKLLIYSASSLYSGVPSRFSGSRSGTDFTLTISSLQPEDFATYYCQQGSYLITFGQGTKVEIK
2 | binds | binds | – | Fab5 (Fab, V domains shown, also called Ab5 (IgG form with the same VH and VL)) VH: EVQLVESGGGLVQPGGSLRLSCAASGFNLYSSYMHWVRQAPGKGLEWVASIYSSYSSTYYADSVKGRFTISADTSKNTAYLQMNSLRAEDTAVYYCARTVRGSKKPYFSGWAMDYWGQGTLVTVSS VL: DIQMTQSPSSLSASVGDRVTITCRASQSVSSAVAWYQQKPGKAPKLLIYSASSLYSGVPSRFSGSRSGTDFTLTISSLQPEDFATYYCQQGAGLITFGQGTKVEIK
3 | binds | binds | – | Fab6 (Fab, V domains shown, also called Ab6 (IgG form with the same VH and VL)) VH: EVQLVESGGGLVQPGGSLRLSCAASGFNIYSSYIHWVRQAPGKGLEWVASISSSYGYTYYADSVKGRFTISADTSKNTAYLQMNSLRAEDTAVYYCARTVRGSKKPYFSGWAMDYWGQGTLVTVSS VL: DIQMTQSPSSLSASVGDRVTITCRASQSVSSAVAWYQQKPGKAPKLLIYSASSLYSGVPSRFSGSRSGTDFTLTISSLQPEDFATYYCQQGGSLITFGQGTKVEIK
4 | binds | binds | – | Fab7 (Fab, V domains shown, also called Ab7 (IgG form with the same VH and VL)) VH: EVQLVESGGGLVQPGGSLRLSCAASGFNFSSSSIHWVRQAPGKGLEWVASISSSYGYTYYADSVKGRFTISADTSKNTAYLQMNSLRAEDTAVYYCARTVRGSKKPYFSGWAMDYWGQGTLVTVSS VL: DIQMTQSPSSLSASVGDRVTITCRASQSVSSAVAWYQQKPGKAPKLLIYSASSLYSGVPSRFSGSRSGTDFTLTISSLQPEDFATYYCQQGSHLITFGQGTKVEIK
5 | binds | binds | binds | Fab8 (Fab, V domains shown, also called Ab8 (IgG form with the same VH and VL)) VH: EVQLVESGGGLVQPGGSLRLSCAASGFNIYYSYMHWVRQAPGKGLEWVASISSSYGYTYYADSVKGRFTISADTSKNTAYLQMNSLRAEDTAVYYCARTVRGSKKPYFSGWAMDYWGQGTLVTVSS VL: DIQMTQSPSSLSASVGDRVTITCRASQSVSSAVAWYQQKPGKAPKLLIYSASSLYSGVPSRFSGSRSGTDFTLTISSLQPEDFATYYCQQASYLITFGQGTKVEIK
6 | binds | binds | binds | Fab9 (Fab, V domains shown, also called Ab9 (IgG form with the same VH and VL)) VH: EVQLVESGGGLVQPGGSLRLSCAASGFNLSYSSMHWVRQAPGKGLEWVASISPYSGSTYYADSVKGRFTISADTSKNTAYLQMNSLRAEDTAVYYCARYYWYYYYGFDYWGQGTLVTVSS VL: DIQMTQSPSSLSASVGDRVTITCRASQSVSSAVAWYQQKPGKAPKLLIYSASSLYSGVPSRFSGSRSGTDFTLTISSLQPEDFATYYCQQYVGYGSPITFGQGTKVEIK
7 | binds | binds | – | Fab4 (Fab, V domains shown, also called Ab4 (IgG form with the same VH and VL)) VH: EVQLVESGGGLVQPGGSLRLSCAASGFNLYYYSIHWVRQAPGKGLEWVAYISSYYGYTYYADSVKGRFTISADTSKNTAYLQMNSLRAEDTAVYYCARYYPGGWHAFDYWGQGTLVTVSS VL: DIQMTQSPSSLSASVGDRVTITCRASQSVSSAVAWYQQKPGKAPKLLIYSASSLYSGVPSRFSGSRSGTDFTLTISSLQPEDFATYYCQQYYGYGYPITFGQGTKVEIK
